From PMC4232310
Substitutions are numbered along the chain they refer to. No constants are given. Whether binding was seen depends on the method and setting. Binding seen in cells or lysates may run through a third protein. Some entries that bind do so weakly or less than the wild type. Where a sequence is shown, tags or fusion partners need not be part of it.

How the values were obtained:
Experiment in all cases: co-IP; dss1Δ S. pombe expressing Dss1-GFP fusion proteins; immunoprecipitation with antibodies to GFP; western blot for Mts4/Rpn1 and GFP
[1] = biological target: T1, Dss1-GFP fusion protein, UBS-II mutant (S. pombe) (UniProt O14140)
T1 sequence: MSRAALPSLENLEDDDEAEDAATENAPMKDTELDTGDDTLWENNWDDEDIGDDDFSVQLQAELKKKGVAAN

[2] = biological target: T2, Dss1-GFP fusion protein, mutated in both UBS-I and UBS-II (S. pombe) (UniProt O14140)
T2 sequence: T1 sequence with L40A, W41A, W45A

[3] = biological target: T3, Dss1-GFP fusion protein, UBS-I mutant (S. pombe) (UniProt O14140)
T3 sequence: T1 sequence with A18F, A21F, A26W, L40A, W41A, W45A

[4] = biological target: T4, Dss1-GFP fusion protein, wild-type (S. pombe) (UniProt O14140)
T4 sequence: T1 sequence with A18F, A21F, A26W

binding [1]: binds
binding [2]: no binding
binding [3]: binds
binding [4]: binds
B1: proteasome subunit Mts4/Rpn1 (protein, UniProt P87048 1-891)
chain: MSSKDISSKSPSGNDALNDKKGTKTSETNDRNSTNNTKERDELEDLSEEDLQLKNDLELLVQAVQDATPELVGSSLTQLKEIIRTSTSSMTAVPKPLKFLRPHYFTLVKIYDSWPQSPQKTQLADILSVLGMSYSNTSKHESLKYRLQGVTTDPSLWGHEYVRHLASEIEEEFASRQEEEAPTDDLMELALTIVPFFLTHNAEADAIDLLQELGAIEKVVPFVELDNASRVCLYITSCVNLLPFPEDVAMLRTAHAIYRKFDQLTQALNVAIRLDDMSLIKEDCEAATDPLLKKQMSYMLARQQIPMDMGDEELNDALNNTHLSDHFHYLGKELNLMDPKVPEDIFKTHLEVARTGLGASGVYSAKQNLANTFVNALVNAGYSNDRLILVDDEKTSWIYKNKESGLISATASIGLLQLWNVDMGLSLLDKYLYSSEENTKAGALLGIGVTNVAVRNEADPAMAILSEYLETGSVKLRASAILGLGLAYSGANREDLLDMLSPIVTDTDCPMQLSCLAALSLGLIFVGTCNGDVASTILQTLMEREESAQNDQWGRFMALGLALLFNGKQDLADATVETLKAIEGKIARQAEILVDICSYAGTGNVLHIQKLLHICSEPPSDDAKESETTIQTFAALGVATIAMGEDIGAEMVLRHFDHMMHYGEPSIRKAIPLALGLLSASNPQMRIFDTLSRYSHDNDLDVAYNAIFAMGLVGAGTSNARLAQLLRQLASYYHKESNALFMVRIAQGLLYLGKGTMTLNPYHTERQILGQTAFAGLMTVVLAMLDANTFVLDTSHWLLYAITLAIRPRMLITLGEDGQYLPVSVRVGQAVDVVGQAGRPKVITGWVTHTTPVLLHHNERAELATEAYTPLTSLEGIVILKKNTEDIEMTA
